The record followed here is PMC3448846 (European neuropsychopharmacology : the journal of the …, 2012).

The experiment has as its system spatial learning and memory. Kind of experiment: Morris water maze. The experiment is classed as in vivo, male Wistar rats. The following applies: 2 mg/kg i.p., vs solvent-treated controls. The gist of the method:
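Male Wistar rats, 220–250 g, n=8/group, dosed i.p. in 85% water/14% propylene glycol/1% Tween 80 (sonicated) 20 min before each daily block for 5 acquisition days. Pool 200 cm wide with 23°C water; 15×10 cm platform 2 cm below the surface. Each block had 4 trials (max 120 s, 60 s interval, pseudorandom starts). Per-rat daily means were recorded. The probe trial measured target-region time and peripheral-ring distance.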

In the case of `CN1C(=O)CN=C(c2ccccc2)c2cc(Cl)ccc21` [DZP, diazepam, reference compound], the “path efficiency during acquisition” value was “significantly lower path efficiencies than solvent-treated controls from day two onwards”.
